Results published in PubChem BioAssay AID1347076 (National Center for Advancing Translational Sciences (NCATS), 2019).
The campaign covered roughly 400,000 compounds. About 13,000 (3.2%) were called active. Inconclusive results, whose numbers are uncertain, are shown with a selection of clear calls. Calls follow the shape of the dose curve; as a rule, active = well fitted cell-killing curve with a large enough effect; inconclusive = small, poorly fitted or top-dose-only effect, or effect the other way; inactive = flat fitted curve, though single readings scatter. A potency beside an inconclusive call is a rough fit, not a confirmed value.

assay: qHTS assay for MDR1-selective chemotherapeutics: Primary screen using the drug-selected MDR subline cells KB-V1; settings: KB-V1 MDR cells viability, CellTiter-Glo, 72 h; activity change, negative = cytotoxicity: at 46.1 µM (top of the series); also: nearly all actives have a fitted effect of over 60% in size
How it was run: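 Readout: CellTiter-Glo luminescence, 10 min after addition. Cells: KB-V1 MDR subline, 72 h at 37 degrees C with compound. Analysis: corrected, normalized data fitted to concentration-effect curves.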
% is scaled to controls: 0 for no effect and ±100 for the full control effect; potency is read from the fitted curve at half-maximal effect.

SMILES	Potency	activity change, negative = cytotoxicity
O=C(CSc1nnc(-c2ccc(Br)cc2)o1)N1CCN(C(=O)c2ccco2)CC1	inconclusive: 14.6 µM [cytotoxic, partial curve]	
Cc1cc(NC(=O)CCC(=O)N(c2ccc(F)cc2)C(C(=O)NC2CCCC2)c2ccc(C)o2)no1 (stereo not drawn)	inactive	
COC(=O)C1(C(=O)OC)c2ccccc2N(S(=O)(=O)c2ccc(C)cc2)C1CC(C)=O (stereo not drawn)	inconclusive: 20.6 µM [cytotoxic, single point]	
CCOC(=O)[C@]12CCC=C1N(CCC1=CCCCC1)C(=O)[C@H](CC(=O)N1CCC(c3ccccc3)CC1)C2	inconclusive: 29.1 µM [rising, single point]	
O=C1CN(C(=O)COC(=O)c2ccc(N3CCCCCC3)c([N+](=O)[O-])c2)c2ccccc2N1	inconclusive: 32.6 µM [cytotoxic, partial curve, poor fit]	
CC(C)c1cc(C(N)=O)c(NC(=O)c2cccc(COc3ccc(Br)cc3)c2)s1	active: 20.6 µM	
CCOC(=O)c1c(NC(=O)COc2ncnc3ccccc23)sc(C)c1CC	inconclusive: 9.2 µM [cytotoxic, partial curve, poor fit]	
CCCn1c(NCc2ccco2)nc2c1c(=O)n(C)c(=O)n2C	active: 14.6 µM	
CCOC(=O)CNC(=O)N1CCc2ccc(NC(=O)c3ccccc3OC)cc2C1	inconclusive: 23.1 µM [rising, partial curve, poor fit]	
Cc1ccc(-c2nn(-c3ccc(F)cc3)cc2C(=O)NCC2CCCO2)cc1 (stereo not drawn)	inconclusive: 32.6 µM [cytotoxic, single point]	
Cc1ccc(C)c(NC(=O)COc2coc(CN3CCc4ccccc4C3)cc2=O)c1	inconclusive: 29.1 µM [cytotoxic, single point]	
Nc1nc(-c2cccnc2)nn1C(=O)COc1ccccc1	inactive	
CCc1noc(-c2ccc(N(C)Cc3ccc(OC)cc3)c([N+](=O)[O-])c2)n1	inconclusive: 18.4 µM [cytotoxic, single point]	
CCOc1ccc(CCNC(=O)c2sc3ncccc3c2-n2c(C)ccc2C)cc1	inactive	
CCn1c(=O)n(-c2ccc(Cl)cc2)c(=O)c2c3c(sc21)COC(C)(C)C3	inconclusive: 16.4 µM [cytotoxic, single point]	
COc1ccc([N+](=O)[O-])cc1NS(=O)(=O)c1ccccc1	inconclusive: 20.6 µM [cytotoxic, single point]	
Cc1cc(=O)n(CC(=O)Nc2cccc([N+](=O)[O-])c2)c(-n2nc(C)cc2C)n1	inconclusive: 13 µM [cytotoxic, single point]	
COc1ccc(-c2cc(C(F)(F)F)nc(SCCC(=O)Nc3cccc(O)c3)n2)cc1	inconclusive: 18.4 µM [cytotoxic, single point]	
COc1ccc(C2(C)NC(=O)N(CC(=O)NC3(C#N)CCCCC3)C2=O)cc1 (stereo not drawn)	inconclusive: 25.9 µM [rising, single point]	
CCOc1ccc(-c2c(C(=O)N/N=C(\C)c3cccs3)nnn2-c2nonc2N)cc1	inconclusive: 29.1 µM [rising, single point]	
CC1(C)SC2c3ccccc3C(=O)N2C1C(=O)O (stereo not drawn)	inactive	
C=C(C)CNC(=S)NN=C1c2ccccc2-c2ccccc21	inconclusive: 29.1 µM [cytotoxic, single point]	
CCCCn1c(N)c(N(CCOC)C(=O)C2CCN(S(=O)(=O)c3ccccc3)CC2)c(=O)[nH]c1=O	inconclusive: 7.31 µM [rising, partial curve, poor fit]	

Fetched by structure from above, 2 records:
SMILES	Potency	activity change, negative = cytotoxicity
CCOC(=O)CNC(=O)N1CCc2ccc(NC(=O)c3ccccc3OC)cc2C1	inconclusive: 23.1 µM [rising, partial curve, poor fit]	
O=C(CSc1nnc(-c2ccc(Br)cc2)o1)N1CCN(C(=O)c2ccco2)CC1	inconclusive: 14.6 µM [cytotoxic, partial curve]	

Additional records:

SMILES	Potency	activity change, negative = cytotoxicity
O=C(C(=O)N1CCN(c2ccccc2)CC1)c1ccccc1	inactive	
CC1CCN(c2ccc(NC(=O)c3ccc(Br)o3)cc2)CC1	inconclusive: 29.1 µM [cytotoxic, single point]	
O=S(=O)(NCCN1CCOCC1)c1ccc(Oc2ccccc2Cl)cc1	inconclusive: 14.6 µM [cytotoxic, single point]	
Clc1ccccc1/C=N/N1CCN(Cc2ccccc2)CC1	inconclusive: 5.8 µM [rising, full curve]	
Cc1ccc(C(=O)N/N=C/c2ccc(-c3cccc(C(F)(F)F)c3)o2)cn1	active: 8.2 µM	
COc1ccc(-c2noc(C3CCCN(S(=O)(=O)c4ccc(C)c(Cl)c4)C3)n2)cc1OC (stereo not drawn)	active: 3.66 µM	
O=C1OC(c2ccc(Cl)cc2)=C/C1=C/c1cccnc1	inconclusive: 25.9 µM [rising, partial curve, poor fit]	
CCc1ccc(C(=O)CSc2n[nH]c(-c3ccncc3)n2)cc1	inconclusive: 29.1 µM [cytotoxic, single point]	
O=C(Nc1nnc(-c2ccc3c(c2)CCCC3)o1)C1CCCCC1		inconclusive: 48.3%
COc1ccccc1CNC(=O)COc1ccccc1C(=O)c1cnn(-c2ccccc2)c1	inactive	
CCOC(=O)C1=C(N)Oc2c(c(=O)[nH]c3ccccc23)C1c1ccccc1 (stereo not drawn)	inconclusive: 5.8 µM [cytotoxic, full curve]	
CCOc1ccccc1C1C2CCCCC2(O)CCN1C(=O)c1cccs1 (stereo not drawn)	active: 23.1 µM	
c1ccc(-c2nnc3oc(-c4cccs4)nn23)cc1	inactive	
CN(C)c1cccc(C(=O)N2CCC(c3ccncc3)CC2)c1	inactive	
COc1ccccc1N1CCN(Cc2nnnn2CCc2ccccc2)CC1	inconclusive: 20.6 µM [cytotoxic, single point]	
O=C(Cn1c(C(=O)OCCO)cc2ccccc21)c1ccccc1	inconclusive: 14.6 µM [cytotoxic, partial curve, poor fit]	
CNC(=O)C(=O)Nc1ccc2c(c1)N(S(=O)(=O)c1cccs1)CCC2	inactive	
COc1ccc(Cn2ccc3nc(C)c(C(=O)N4CCN(c5cc(C)ccc5C)CC4)cc3c2=O)cc1	inconclusive: 25.9 µM [cytotoxic, single point]	
C=CCn1c(SCCOc2ccccc2)nnc1C(C)NC(=O)c1ccccc1 (stereo not drawn)	inconclusive: 20 µM [cytotoxic, single point]	
COCCN1C(=O)c2ccccc2C(C(=O)N2CCN(c3ccccn3)CC2)C1c1ccc(F)cc1 (stereo not drawn)	inconclusive: 18.4 µM [cytotoxic, single point]	
Cc1cccc(C)c1NC(=O)C(c1ccnc2ccccc12)N1CCN(CCN(C)C)CC1 (stereo not drawn)	inactive	
O=C(CSc1nc(-c2ccccc2)nc2c1CCCC2)c1ccc(Cl)cc1		inconclusive: 0%
Cc1cc(C)c(S(=O)(=O)N2CCCC(C(=O)N3CCCC3)C2)c(C)c1 (stereo not drawn)	inconclusive: 32.6 µM [cytotoxic, partial curve, poor fit]	

One compound at a time, as listed above:
`c1ccc(-c2nnc3oc(-c4cccs4)nn23)cc1` is entered as Potency: inactive
`COCCN1C(=O)c2ccccc2C(C(=O)N2CCN(c3ccccn3)CC2)C1c1ccc(F)cc1` (stereo not drawn) is entered as Potency: inconclusive: 18.4 µM [cytotoxic, single point]
`Clc1ccccc1/C=N/N1CCN(Cc2ccccc2)CC1` is entered as Potency: inconclusive: 5.8 µM [rising, full curve]

Next records:

SMILES	Potency	activity change, negative = cytotoxicity
O=S(=O)(c1ccc(-c2ccccn2)s1)N1CCC2(CC1)OCCO2	inconclusive: 20.6 µM [cytotoxic, partial curve, poor fit]	
CC(=O)c1c(C)n(CC(=O)NCc2ccco2)c2ccccc12	inconclusive: 2.59 µM [cytotoxic, partial curve, poor fit]	
COCCN(CCOC)S(=O)(=O)c1ccc(C(=O)Nc2ccncc2)cc1	inconclusive: 18.4 µM [rising, single point]	
Cc1ccc(S(=O)(=O)NCc2ccc(C(=O)N3CCN(Cc4ccccc4)CC3)cc2)cc1	inconclusive: 6.51 µM [cytotoxic, full curve, poor fit]	
O=C(O)c1cc(C(=O)O)c(-c2ccccc2)c(C(=O)O)c1	inconclusive: 23.1 µM [rising, partial curve, poor fit]	
COc1ccc(-c2ccc([C@H]3[C@H]4C=CC[C@@H](C)[C@@H]4C(=O)N3Cc3ccccc3)c(F)c2)cc1	inactive	
COc1ccc(CS(=O)(=O)c2ncn[nH]2)cc1	inactive	
COCc1c(C(=O)N/N=C\c2cccs2)nnn1-c1nonc1N	inactive	
Cn1cc(C(F)(F)F)nc1-c1ccc(OCC(O)CNCCOc2ccc(O)c(C(N)=O)c2)cc1 (stereo not drawn)	inactive	
Cn1c2ccsc2c2ncn(Cc3ccc(F)cc3)c(=O)c21	inactive	
Cc1ccc(Sc2c(C#N)c(-c3ccccc3)nn2C)cc1	inactive	
C[C@H]1C=C(C(=O)NC2CC2)O[C@@H](OCc2ccc(CO)cc2)C1	inactive	
O=C(Nc1ccccc1)Nc1n[nH]c2nnc(-c3ccccc3)c(-c3ccccc3)c12	inconclusive: 8.2 µM [cytotoxic, partial curve]	
CCN1C(=O)[C@H]2[C@@H](c3ccc(-c4ccc(OC)cc4)c(OC)c3)N3CCCC[C@@]3(C(=O)OC)[C@H]2C1=O	inconclusive: 29.1 µM [cytotoxic, single point]	
COc1ccc(C#Cc2c(-c3ccccc3)n(-c3ccccc3)c3ccc(CO)cc23)cc1	inconclusive: 0.326 µM [cytotoxic, full curve]	
CCN(CC)S(=O)(=O)c1cc(NC(=O)CSc2nccn2C)ccc1C	inconclusive: 20.6 µM [cytotoxic, partial curve, poor fit]	
CCC(CCNC(=O)c1ccccc1)(CCNC(=O)c1ccccc1)[N+](=O)[O-]	active: 20.6 µM	
CN1CCC(=O)N([C@H](COc2ccccc2)Cc2ccccc2)CC1	inconclusive: 20.6 µM [cytotoxic, single point]	
COc1ccc(CN(C)CCc2ccccn2)c(OC)c1OC	inconclusive: 8.2 µM [cytotoxic, partial curve]	
O=C(CN1CCOCC1)NNC(=S)Nc1ccccc1	inactive	
CCC(C(=O)NC1CCCC1)n1c(-c2cc3ccccc3[nH]2)nc2ccccc21 (stereo not drawn)	inconclusive: 5.17 µM [cytotoxic, full curve, poor fit]	
Cc1cc(C)cc(N(CC(=O)Nc2ccccc2)C2=NC3CS(=O)(=O)CC3S2)c1 (stereo not drawn)	inconclusive: 3.26 µM [rising, partial curve, poor fit]	
